Data as given in paper doi:10.1101/2024.05.06.590709 (bioRxiv, 2024).
Results are given in words; binding and its absence hold for the method and conditions named. Binding seen in cells or lysates may run through a third protein. A yes stands for co-enrichment or nearness to the bait. Other partners may have been found.

Amino acid sequences for entries named in this document (tags omitted). Residues count along the entry.
UniProt Q8S926, residues 1-118: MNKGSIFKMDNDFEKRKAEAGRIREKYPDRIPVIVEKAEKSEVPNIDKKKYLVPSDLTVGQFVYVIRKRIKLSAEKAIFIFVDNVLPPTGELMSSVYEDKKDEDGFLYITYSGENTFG

T1: IMPDH1-Clover (Arabidopsis thaliana) (UniProt P47996)
T1 sequence: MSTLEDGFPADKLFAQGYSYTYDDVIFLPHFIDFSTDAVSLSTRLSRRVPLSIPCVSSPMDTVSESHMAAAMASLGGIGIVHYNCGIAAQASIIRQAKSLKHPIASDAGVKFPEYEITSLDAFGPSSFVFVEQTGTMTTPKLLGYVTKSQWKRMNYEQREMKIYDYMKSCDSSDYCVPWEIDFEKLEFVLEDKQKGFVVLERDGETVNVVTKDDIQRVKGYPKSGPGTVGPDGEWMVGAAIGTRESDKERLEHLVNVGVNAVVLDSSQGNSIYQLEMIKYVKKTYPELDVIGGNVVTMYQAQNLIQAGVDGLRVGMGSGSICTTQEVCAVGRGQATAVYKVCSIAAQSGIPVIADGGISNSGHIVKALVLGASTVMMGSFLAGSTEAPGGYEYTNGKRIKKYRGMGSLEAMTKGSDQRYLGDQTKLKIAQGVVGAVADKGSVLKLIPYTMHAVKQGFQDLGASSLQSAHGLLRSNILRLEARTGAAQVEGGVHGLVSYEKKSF

T2: NIT1-Clover (Arabidopsis thaliana) (UniProt P32961)
T2 sequence: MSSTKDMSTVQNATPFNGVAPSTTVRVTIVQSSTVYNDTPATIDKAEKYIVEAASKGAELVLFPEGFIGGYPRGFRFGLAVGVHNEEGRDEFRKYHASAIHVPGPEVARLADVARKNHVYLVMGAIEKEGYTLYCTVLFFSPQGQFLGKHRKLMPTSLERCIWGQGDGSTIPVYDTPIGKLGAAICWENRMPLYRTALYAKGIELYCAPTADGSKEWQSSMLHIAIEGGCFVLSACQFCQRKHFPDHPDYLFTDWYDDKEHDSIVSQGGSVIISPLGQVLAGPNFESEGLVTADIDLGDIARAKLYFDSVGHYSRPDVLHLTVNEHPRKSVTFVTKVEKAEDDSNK

T3: mCherry-ATG8A (Arabidopsis thaliana) (UniProt Q8LEM4)
T3 sequence: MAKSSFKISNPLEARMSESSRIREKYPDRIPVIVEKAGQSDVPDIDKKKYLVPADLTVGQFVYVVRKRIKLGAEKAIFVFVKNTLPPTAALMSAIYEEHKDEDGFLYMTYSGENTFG

B1: IMPDH2, endogenous (enzyme, UniProt Q9SA34 1-502)
chain: MSGFEDGFSAEKLFSQGYSYTYDDVIFLPHFIDFSTDAVSLSTRLSKRVPLSIPCVASPMDTVSESHMAAAMAALGGIGIVHYNCDIDTQASVIRHAKSLQVPIASDAVFKCPEHQIGSVDDFGPSSFVFVSQTGTLTPKLLGYVSKSEWSSMKDDQKEVKIYDYMKSCENKDYYVPWDIDLDKIEAVLEDKQKGFVVLEKEGETVNVVTKDDVERVKGYPKLGSGTVGADKKWMVGAAIGTRESDKERLEHLVKAGANVVVLDSSQGNSIYQLEMIKYVKNTYPELDVVGGNVVTMYQAENLIKAGVDGLRVGMGSGSICTTQEVCAVGRGQATAVYKVSTLAAQHGVPVIADGGISNSGHIVKALVLGASTVMMGSFLAGSTEAPGAYEYRNGRRVKKYRGMGSLEAMTKGSDQRYLGDTAKLKIAQGVVGAVADKGSVLKFIPYTMHAVKQGFQDLGASSLQSAHELLRDNTLRLEARTGAAQIEGGIHGLVSYEKKSF
B2: ATG8A (detected by mass spectrometry in the Clover affinity purifications) (protein, UniProt Q8LEM4 1-117)
chain: T3 sequence
B3: NIT2, endogenous (enzyme, UniProt P32962 1-339)
chain: MSTSENTPFNGVASSTIVRATIVQASTVYNDTPATLEKANKFIVEAASKGSELVVFPEAFIGGYPRGFRFGLGVGVHNEEGRDEFRKYHASAIKVPGPEVEKLAELAGKNNVYLVMGAIEKDGYTLYCTALFFSPQGQFLGKHRKLMPTSLERCIWGQGDGSTIPVYDTPIGKLGAAICWENRMPLYRTALYAKGIELYCAPTADGSKEWQSSMLHIAIEGGCFVLSACQFCLRKDFPDHPDYLFTDWYDDKEPDSIVSQGGSVIISPLGQVLAGPNFESEGLITADLDLGDVARAKLYFDSVGHYSRPDVLHLTVNEHPKKPVTFISKVEKAEDDSNK
B4: NIT3, endogenous (enzyme, UniProt P46010 1-346)
chain: MSSTEEMSSVKNTTQVIGVDPSSTVRVTIVQSSTVYNDTPATLDKAEKFIVEAASKGAKLVLFPEAFIGGYPRGFRFGLAVGVHNEEGRDEFRNYHASAIKVPGPEVERLAELAGKNNVHLVMGAIEKDGYTLYCTALFFSPQGQFLGKHRKVMPTSLERCIWGQGDGSTIPVYDTPIGKIGAAICWENRMPLYRTALYAKGIEIYCAPTADYSLEWQASMIHIAVEGGCFVLSAHQFCKRREFPEHPDYLFNDIVDTKEHDPTVSGGGSVIISPLGKVLAGPNYESEGLVTADLDLGDIARAKLYFDVVGHYSKPDIFNLTVNEHPKKPVTFMTKVEKAEDESNK
B5: Inosine Monophosphate Dehydrogenase1 (IMPDH1, AT1G79470), endogenous (enzyme, UniProt P47996 1-503)
chain: T1 sequence
B6: ATG7 (protein, UniProt Q94CD5 1-697)
chain: MAEKETPAIILQFAPLNSSVDEGFWHSFSSLKLDKLGIDDSPISITGFYGPCGHPQVSNHLTLLSESLPLDEQSLIASTSHGNRNKCPVPGILYNTNTVESFNKLDKQSLLKAEANKIWEDIQSGKALEDPSVLPRFLVISFADLKKWSFRYWFAFPAFVLDPPVSLIELKPASEYFSSEEAESVSAACNDWRDSDLTTDVPFFLVSVSSDSKASIRHLKDLEACQGDHQKLLFGFYDPCHLPSNPGWPLRNYLALIRSRWNLETVWFFCYRESRGFADLNLSLVGQASITLSSGESAETVPNSVGWELNKGKRVPRSISLANSMDPTRLAVSAVDLNLKLMRWRALPSLNLNVLSSVKCLLLGAGTLGCQVARTLMGWGIRNITFVDYGKVAMSNPVRQSLYNFEDCLGRGEFKAVAAVKSLKQIFPAMETSGVVMAIPMPGHPISSQEEDSVLGDCKRLSELIESHDAVFLLTDTRESRWLPSLLCANANKIAINAALGFDSYMVMRHGAGPTSLSDDMQNLDINKTNTQRLGCYFCNDVVAPQDSMTDRTLDQQCTVTRPGLAPIAGALAVELLVGVLQHPLGINAKGDNSSLSNTGNNDDSPLGILPHQIRGSVSQFSQITLLGQASNSCTACSETVISEYRERGNSFILEAINHPTYLEDLTGLTELKKAANSFNLDWEDDDTDDDDVAVDL
B7: Nitrilase1 (NIT1, AT3G44310), endogenous (enzyme, UniProt P32961 1-346)
chain: T2 sequence

These binders were tested against T1, IMPDH1-Clover (Arabidopsis thaliana) (assay: affinity purification with mass spectrometry).

Row | Binder | binding
1 | B1 | binds
2 | B2 | binds

The binders below were run against T2, NIT1-Clover (Arabidopsis thaliana) (assay: affinity purification with mass spectrometry).

Row | Binder | binding
3 | B3 | binds
4 | B4 | binds
5 | B5 | binds
6 | B1 | binds
7 | B2 | binds

The binders below were run against T3, mCherry-ATG8A (Arabidopsis thaliana) (assay: affinity purification with mass spectrometry).

Row | Binder | binding
8 | B6 | binds
9 | B5 | binds
10 | B7 | binds

What follows are binders tested against mCherry-ATG8E (Arabidopsis thaliana) (UniProt Q8S926) (assay: affinity purification with mass spectrometry).

Row | Binder | binding
11 | B6 | binds
12 | B5 | binds
13 | B7 | binds
